Reference: PubChem BioAssay AID504834 (National Center for Advancing Translational Sciences (NCATS), 2011)
Among all 320,000 compounds or so, about 22,000 (6.9%) were called active. Inconclusive means that the source gave no clear call. Such entries were picked first, then a sample of the others. Calls follow the shape of the dose curve; as a rule, active = well fitted inhibition curve with a large enough effect; inconclusive = small, poorly fitted or top-dose-only effect, or another doubt; inactive = no such curve, though single readings can be large or run the other way. Potencies of inconclusive entries are doubtful fits and often do not repeat.
% is scaled to controls: 0 for no effect and ±100 for the full control effect; potency is read from the fitted curve at half-maximal effect.

Experiment: Primary qHTS for delayed death inhibitors of the malarial parasite plastid, 96 hour incubation
Conditions: P. falciparum luciferase reporter growth; series mostly up to 28.7 µM; activity change, negative = inhibition: at the top concentration
Procedure, shortened: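 Cell-based qHTS: luciferase-tagged P. falciparum in erythrocytes (2% hematocrit, 0.05% parasitemia final) incubated with compounds for 96 hours, 37 C, 5% CO2; luciferase detection reagent then added and luminescence measured.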
In the case of `Cc1ccc(CN2CCN(C(=O)c3cccc4ccccc34)CC2)cc1`, the “activity change, negative = inhibition” value is reported as inactive: 3.73%.
With `O=C(Nc1ccccc1F)NC1CC1` the “activity change, negative = inhibition” value was inactive: 80.8%.
With `CCCn1c(=S)[nH]c2cc(OC)c(OC)cc2c1=O` the “activity change, negative = inhibition” value was inactive: -18.2%.
With `COc1ccc2nc(Nc3sc4c(c3C(N)=O)CCCC4)sc2c1` the Potency was inconclusive: 16.5 µM [inhibitor, single point].
In the case of `COc1cc([C@@H]2[C@H]3CN(C)CC=C3C(C#N)=C(N)C2(C#N)C#N)cc2c1OCO2`, the “activity change, negative = inhibition” value is reported as inactive: 0.203%.
With `CCn1c(-c2ccccc2SC)n[nH]c1=S` the Potency was inconclusive: 0.294 µM [inhibitor, full curve].
For `O=C(CCNC(=O)c1ccco1)Nc1ccc(Cl)c(C(F)(F)F)c1`, the “activity change, negative = inhibition” value was inactive: 0.521%.
For `O=C(OCc1nc2ccccc2s1)c1ccc(Br)s1`, the “activity change, negative = inhibition” value was inactive: 37.4%.
In the case of `Cc1ccc(-n2ccc(=O)c(C(=O)Nc3ccc(S(=O)(=O)Nc4nccs4)cc3)n2)cc1`, the Potency is reported as inconclusive: 14.7 µM [inhibitor, partial curve, poor fit].
In the case of `COc1ccc(/C=C2/N=C(SCC(=O)Nc3cc(C)on3)N(c3ccccc3)C2=O)cc1`, the “activity change, negative = inhibition” value is reported as inactive: 28.9%.
In the case of `Cc1c(Cc2ccccc2)c(=O)oc2c(C)c(OCC(=O)N[C@@H](Cc3ccccc3)C(=O)O)ccc12`, the Potency is reported as inconclusive: 9.28 µM [inhibitor, single point].
With `COc1cc2c(cc1NC(=O)COC(=O)[C@@H](NC(=O)c1ccccc1)C(C)C)oc1ccccc12` the Potency was inconclusive: 13.1 µM [inhibitor, single point].
With `O=C(NCCN1CCN(c2ccccc2)CC1)c1ccc2c(c1)[nH]c(=S)n1c3ccccc3nc21` the Potency was inconclusive: 9.28 µM [inhibitor, partial curve, poor fit].
For `Cc1nonc1OC(C)CNCCNc1ccc([N+](=O)[O-])cc1` (centres undefined), the Potency was inconclusive: 18.5 µM [inhibitor, single point].
In the case of `Cc1cc(C)cc(N(CC(=O)NCCSCc2ccccc2)S(C)(=O)=O)c1`, the “activity change, negative = inhibition” value is reported as inactive: 23.5%.
In the case of `CCOC(=O)C1(Cc2ccc(OC)cc2)CCN(S(C)(=O)=O)CC1`, the “activity change, negative = inhibition” value is reported as inactive: 1.92%.
For `OCCN(Cc1ccccc1)c1ncnc2sccc12`, the “activity change, negative = inhibition” value was inactive: 10.4%.
With `Cc1ccc2oc(C(=O)NC3CCS(=O)(=O)C3)cc(=O)c2c1` (centres undefined) the Potency was inconclusive: 11.7 µM [inhibitor, partial curve, poor fit].
With `CCOCCCNS(=O)(=O)c1ccc(Br)cc1` the Potency was inconclusive: 8.28 µM [inhibitor, partial curve, poor fit].
With `Cc1cc(NC(=O)CCC(=O)N(CC(=O)NC2CCCC2)c2ccccc2)no1` the Potency was active: 14.7 µM.
In the case of `O=C(Nc1ccc2c(c1)OCO2)N1CCN(Cc2ccco2)CC1`, the “activity change, negative = inhibition” value is reported as inactive: 3.98%.
With `COc1ccc(N2CCN(C(=O)c3cn(C)c(=O)c4c3c3ccccc3n4C)CC2)cc1` the Potency was inconclusive: 10.4 µM [inhibitor, single point].
For `CCOC(=O)c1c(NC(=O)CSc2nnc(CNc3ccc(C)cc3C)o2)sc(C)c1C`, the Potency was active: 8.28 µM.
For `CCS(=O)(=O)NCc1csc(-c2ccccc2)n1`, the “activity change, negative = inhibition” value was inactive: 48%.
In the case of `CCOc1cc(/C=C2/NC(=O)N(Cc3ccccc3F)C2=O)ccc1O`, the Potency is reported as inconclusive: 13.1 µM [inhibitor, single point].
In the case of `OCCCC1CCCN(Cc2cn[nH]c2-c2ccc(F)cc2F)C1` (centres undefined), the Potency is reported as active: 7.38 µM.
In the case of `COC(=O)[C@@H]1C[C@H]1[C@@H](NP(=O)(c1ccccc1)c1ccccc1)c1ccccc1`, the Potency is reported as inconclusive: 18.5 µM [inhibitor, single point].
For `Nc1ccc(Oc2ccc3c(c2)OCO3)cc1`, the Potency was inconclusive: 8.28 µM [inhibitor, single point].
In the case of `Cc1ccc(/C=N/Nc2ccnc3cc(Cl)ccc23)c(C)c1`, the Potency is reported as inconclusive: 0.0738 µM [inhibitor, full curve, poor fit].
In the case of `C=CCN1C=C2C(=O)C(C)(OC(=O)CCC(=O)OC)C(=O)C=C2C=C1C1CC1` (centres undefined), the Potency is reported as active: 2.62 µM.
For `Cc1cc(N2C(=O)CC(N3CCN(C(c4ccccc4)c4ccccc4)CC3)C2=O)no1` (centres undefined), the “activity change, negative = inhibition” value was inactive: -22.6%.
With `Cc1c(C(=O)O)sc2nc3n(c(=O)c12)CCC3` the “activity change, negative = inhibition” value was inactive: 16.9%.
For `CCN(CC)C(=O)CSc1nc2ccccc2c(=O)n1CCC(=O)NCc1ccc(F)cc1`, the Potency was inconclusive: 0.329 µM [inhibitor, partial curve, poor fit].
With `C=CCSc1nnc(Cc2cc(=O)[nH]c(=O)[nH]2)n1-c1cc(C)ccc1C` the “activity change, negative = inhibition” value was inactive: 20.6%.
With `CC(=O)NNc1cc(C)nc(NS(=O)(=O)c2ccc(C)cc2)n1` the Potency was inconclusive: 9.28 µM [inhibitor, partial curve].
For `Cc1cc(NC(=O)Cn2cnc3c(cnn3C(C)(C)C)c2=O)no1`, the “activity change, negative = inhibition” value was inactive: 8.92%.
For `Cc1cc(O)ccc1-c1cnc2ccccc2n1`, the Potency was active: 2.62 µM.
For `Oc1ccc(CCNc2c3ccccc3nc3ccccc23)cc1O`, the Potency was active: 3.29 µM.
For `CCOc1cc(/C=C/C(=O)O)ccc1OCc1ccccc1`, the “activity change, negative = inhibition” value was inactive: 14.8%.
With `COC(=O)c1ccc(N2CCOCC2)c(NC(=O)c2cccs2)c1` the Potency was inconclusive: 10.4 µM [inhibitor, single point].
With `CCc1cc(Cn2nc(-c3ccccc3)cc2C(=O)NCCOC)on1` the “activity change, negative = inhibition” value was inactive: -12.1%.
With `O=C(COC(=O)c1cc(Br)ccc1O)NCC1CCCO1` (centres undefined) the Potency was inconclusive: 8.28 µM [inhibitor, single point].
In the case of `COc1ccc(S(=O)(=O)N2c3ccccc3OCC2c2ccccc2)cc1` (centres undefined), the Potency is reported as inconclusive: 13.1 µM [inhibitor, partial curve, poor fit].
With `Cc1ccc(C(=O)CSc2nnc(COc3ccccc3)o2)cc1` the Potency was inconclusive: 13.1 µM [inhibitor, single point].
With `COc1cc(NC(=O)C2CCCCC2)c(OC)cc1NC(=O)CN1CCCCC1` the Potency was inconclusive: 0.0104 µM [inhibitor, full curve, poor fit].
With `C[C@H](O)[C@@H]1C(=O)N2C(C(=O)O)=C(SCCN=CN)C[C@@H]12` the “activity change, negative = inhibition” value was inactive: -13.8% [at 12.8 µM].
In the case of `Cc1ccc(OCC(O)CNCc2ccc(F)cc2)cc1` (centres undefined), the Potency is reported as inconclusive: 18.5 µM [inhibitor, single point].
With `CCOC(=O)N1CCC(NC(=O)CSCc2nc(-c3cccc(OC)c3)oc2C)CC1` the Potency was inconclusive: 3.7 µM [inhibitor, full curve, poor fit].
With `CN1CCN(S(=O)(=O)c2ccc(N3CCN(C(=O)c4ccccc4)CC3)nc2)CC1` the Potency was inconclusive: 0.0738 µM [inhibitor, full curve, poor fit].
